Assay results from patent publication US6822097B1, “Compounds and methods of uses” (Amgen, Inc., priority 2002, dated 2004).
pIC50: −log10 of the molar value. Some entries share one result that the patent states for a list of compounds.

What follows are molecules tested against T1, cyclin E2/CDK2 (Homo sapiens, UniProt P24941) (assay: CDK2 kinase assay (33P-ATP, Histone-H1)).
T1 construct: made in house; host or cells: Hi5 insect cells (baculovirus, pFastBacDual)
Type: biochemical
For `CN1CCN(Cc2ccc3cc(-c4csc(CS(=O)(=O)c5ccccc5)n4)c(=O)[nH]c3c2)CC1` [Example 8745, 7-((4-Methyl-1-piperazinyl)methyl)-3-(2-((phenylsulfonyl)methyl)-1,3-thiazol-4-yl)-2(1H)-quinolinone], the pIC50 was > 6.00.
`O=c1[nH]c2ccccc2cc1-c1csc(-c2ccnc(N3CCCCC3)c2)n1` [Example 101, 3-[2-(3,4,5,6-Tetrahydro-2H-[1,2′]bipyridinyl-4′-yl)-thiazol-4-yl]-1H-quinolin-2-one] was tested, and the pIC50 was > 6.00.
In the case of `CN1CCN(C(=O)c2ccc3cc(-c4csc(-c5ccncc5)n4)c(=O)[nH]c3c2)CC1` [Example 8757, 7-((4-Methyl-1-piperazinyl)carbonyl)-3-(2-(4-pyridinyl)-1,3-thiazol-4-yl)-2(1H)-quinolinone], the pIC50 was > 6.00.
With `CC1CCCN(Cc2ccc3cc(-c4csc(-c5ccncc5)n4)c(=O)[nH]c3c2)C1` (stereo not drawn) [Example 8758, 7-(3-Methyl-piperidin-1-ylmethyl)-3-(2-pyridin-4-yl-thiazol-4-yl)-1H-quinolin-2-one] the pIC50 was > 6.00.
For `CC(C)N(C)Cc1ccc2cc(-c3csc(-c4ccncc4)n3)c(=O)[nH]c2c1` [Example 8759, 7-[(Isopropyl-methyl-amino)-methyl]-3-(2-pyridin-4-yl-thiazol-4-yl)-1H-quinolin-2-one], the pIC50 was > 6.00.
In the case of `COc1cc2[nH]c(=O)c(-c3csc(-c4ccncc4)n3)c(N)c2cc1OC` [Example 19, 3-[2-(4-pyridyl)-4-thiazolyl]-4-amino-6,7-dimethoxy-2(1H)-quinolinone], the pIC50 was > 6.00.
In the case of `O=c1[nH]c2cc(CN3CCC3)ccc2cc1-c1csc(-c2ccncc2)n1` [Example 8771, 7-Azetidin-1-ylmethyl-3-(2-pyridin-4-yl-thiazol-4-yl)-1H-quinolin-2-one], the pIC50 was > 6.00.
For `CN1CCN(Cc2ccc3cc(-c4csc(-c5ccncc5)n4)c(=O)[nH]c3c2)CC1` [Example 109, 7-(4-Methyl-piperazin-1-ylmethyl)-3-(2-pyridin-4-yl-thiazol-4-yl)-1H-quinolin-2-one], the pIC50 was > 6.00.
With `Nc1nc(-c2ccncc2)ncc1-c1nc(-c2cc3ccccc3[nH]c2=O)cs1` [Example 42, 3-[2-(4-Amino-2-(4-pyridyl)pyrimidin-5-yl)-1,3-thiazol-4-yl]hydroquinolin-2-one] the pIC50 was > 6.00.
With `CCN(CC)Cc1ccc2cc(-c3csc(-c4ccncc4)n3)c(=O)[nH]c2c1` [Example 8770, 7-Diethylaminomethyl-3-(2-pyridin-4-yl-thiazol-4-yl)-1H-quinolin-2-one] the pIC50 was > 6.00.
With `O=c1[nH]c2cc(CN3CCCC3)ccc2cc1-c1csc(-c2ccncc2)n1` [Example 8769, 3-(2-Pyridin-4-yl-thiazol-4-yl)-7-pyrrolidin-1-ylmethyl-1H-quinolin-2-one] the pIC50 was > 6.00.
`CC(C)NC[C@H]1CCCN1Cc1ccc2cc(-c3csc(CS(=O)(=O)c4ccccc4)n3)c(=O)[nH]c2c1` [Example 8743, 7-(((2R)-2-(((1-Methylethyl)amino)methyl)-1-pyrrolidinyl)methyl)-3-(2-((phenylsulfonyl)methyl)-1,3-thiazol-4-yl)-2(1H)-quinolinone] was tested, and the pIC50 was > 6.00.
For `O=c1[nH]c2ccccc2cc1-c1nc(-c2ccncc2)cs1` [Example 111, 3-(4-Pyridin-4-yl-thiazol-2-yl)-1H-quinolin-2-one], the pIC50 was > 6.00.
In the case of `CN(c1nc(-c2cc3ccccc3[nH]c2=O)cs1)S(=O)(=O)c1ccccc1` [Example 8721, N-Methyl-N-(4-(2-oxo-1,2-dihydro-3-quinolinyl)-1,3-thiazol-2-yl)benzenesulfonamide], the pIC50 was > 6.00.
`CN1CCN(C(=O)c2ccc3cc(-c4csc(N(C)S(=O)(=O)c5ccccc5)n4)c(=O)[nH]c3c2)CC1` [Example 8765, N-Methyl-N-{4-[7-(4-methyl-piperazine-1-carbonyl)-2-oxo-1,2-dihydro-quinolin-3-yl]-thiazol-2-yl}-benzenesulfonamide] was tested, and the pIC50 was > 6.00.
For `O=c1[nH]c2cc(CN3CCCC(O)C3)ccc2cc1-c1csc(-c2ccncc2)n1` (stereo not drawn) [Example 8780, 7-(3-Hydroxy-piperidin-1-ylmethyl)-3-(2-pyridin-4-yl-thiazol-4-yl)-1H-quinolin-2-one], the pIC50 was > 6.00.
With `O=c1[nH]c2ccccc2cc1-c1csc(-c2ccnc(OCCN3CCCCC3)c2)n1` [Example 96, 3-{2-[2-(2-Piperidylethoxy)-4-pyridyl]-1,3-thiazol-4-yl}hydroquinolin-2-one] the pIC50 was > 6.00.
In the case of `O=c1[nH]c2cc(CNC3CCCC3)ccc2cc1-c1csc(-c2ccncc2)n1` [Example 8782, 7-Cyclopentylaminomethyl-3-(2-pyridin-4-yl-thiazol-4-yl)-1H-quinolin-2-one], the pIC50 was > 6.00.
`O=c1[nH]c2cc(C(F)(F)F)ccc2cc1-c1csc(-c2ccc3c(c2)OCO3)n1` [Example 8725, 3-(2-(1,3-Benzodioxol-5-yl)-1,3-thiazol-4-yl)-7-(trifluoromethyl)-2(1H)-quinolinone] was tested, and the pIC50 was > 6.00.
In the case of `O=C(c1ccc2cc(-c3csc(CS(=O)(=O)c4ccccc4)n3)c(=O)[nH]c2c1)N1CCCCC1` [Example 8734, 3-(2-((Phenylsulfonyl)methyl)-1,3-thiazol-4-yl)-7-(1-piperidinylcarbonyl)-2(1H)-quinolinone], the pIC50 was > 6.00.
With `CCc1cc(-c2nc(-c3cc4ccccc4[nH]c3=O)cs2)ccn1` [Example 12, 3-[2-(2-Ethyl-4-pyridyl)-1,3-thiazol-4-yl]hydroquinolin-2-one] the pIC50 was > 6.00.
In the case of `O=c1ccc(-c2nc(-c3cc4ccccc4[nH]c3=O)cs2)c[nH]1` [Example 15, 3-[2-(6-Oxo-3-hydropyridyl)-1,3-thiazol-4-yl]hydroquinolin-2-one], the pIC50 was > 6.00.
`CCc1cc(-c2nc(-c3cc4cc(Cl)ccc4[nH]c3=O)cs2)ccn1` [Example 16, 6-Chloro-3-[2-(2-ethyl(4-pyridyl))(1,3-thiazol-4-yl)]hydroquinolin-2-one] was tested, and the pIC50 was > 6.00.
In the case of `O=c1[nH]c2ccccc2cc1-c1nc(-c2cccc([N+](=O)[O-])c2)cs1` [Example 114, 3-[4-(3-Nitrophenyl)-1,3-thiazol-2-yl]hydroquinolin-2-one], the pIC50 was > 6.00.
With `COc1ccc2cc(-c3csc(-c4ccnc(Cl)c4)n3)c(=O)[nH]c2c1` [Example 8762, 3-(2-(2-Chloro-4-pyridinyl)-1,3-thiazol-4-yl)-7-(methoxy)-2(1H)-quinolinone] the pIC50 was > 6.00.
For `CCN(CC)CCN(C)Cc1ccc2cc(-c3csc(-c4ccncc4)n3)c(=O)[nH]c2c1` [Example 8781], the pIC50 was > 6.00.
With `CCN(CC)Cc1ccc2cc(-c3csc(CS(=O)(=O)c4ccccc4)n3)c(=O)[nH]c2c1` [Example 8755, 7-((Diethylamino)methyl)-3-(2-((phenylsulfonyl)methyl)-1,3-thiazol-4-yl)-2(1H)-quinolinone] the pIC50 was > 6.00.
For `CCN(CC)C(=O)c1ccc2cc(-c3csc(N(C)S(=O)(=O)c4ccccc4)n3)c(=O)[nH]c2c1` [Example 8767, N,N-Diethyl-3-(2-(methyl(phenylsulfonyl)amino)-1,3-thiazol-4-yl)-2-oxo-1,2-dihydro-7-quinolinecarboxamide], the pIC50 was > 6.00.
With `CC(C)CNCc1ccc2cc(-c3csc(-c4ccncc4)n3)c(=O)[nH]c2c1` [Example 8785, 7-(Isobutylamino-methyl)-3-(2-pyridin-4-yl-thiazol-4-yl)-1H-quinolin-2-one] the pIC50 was > 6.00.
For `CN(c1nc(-c2cc3ccccc3[nH]c2=O)cs1)S(=O)(=O)c1ccc(Br)cc1` [Example 8730, 4-Bromo-N-methyl-N-[4-(2-oxo-1,2-dihydro-quinolin-3-yl)-thiazol-2-yl]-benzenesulfonamide], the pIC50 was > 6.00.
